This experiment has as its target GST-IE72 (pGEX72), HCMV IE1-72 (human cytomegalovirus (HCMV)) (UniProt P13202). Kind of experiment: pull-down; only the target purified.

The chains behind the UniProt entries cited, without tags or fusion partners.
UniProt P13202: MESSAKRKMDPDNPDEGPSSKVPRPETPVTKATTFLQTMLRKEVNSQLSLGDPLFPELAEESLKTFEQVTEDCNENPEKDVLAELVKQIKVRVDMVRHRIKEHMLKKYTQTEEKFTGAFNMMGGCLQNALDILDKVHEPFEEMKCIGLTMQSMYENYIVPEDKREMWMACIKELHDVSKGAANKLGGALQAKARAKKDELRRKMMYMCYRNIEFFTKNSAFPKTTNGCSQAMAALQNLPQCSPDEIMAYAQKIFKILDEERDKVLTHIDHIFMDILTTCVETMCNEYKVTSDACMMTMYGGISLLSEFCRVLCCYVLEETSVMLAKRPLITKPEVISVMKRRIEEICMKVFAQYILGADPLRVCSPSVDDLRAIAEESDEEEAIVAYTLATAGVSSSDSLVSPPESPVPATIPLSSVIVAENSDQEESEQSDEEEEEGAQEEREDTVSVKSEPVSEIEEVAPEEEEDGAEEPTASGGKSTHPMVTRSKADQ
UniProt Q06609: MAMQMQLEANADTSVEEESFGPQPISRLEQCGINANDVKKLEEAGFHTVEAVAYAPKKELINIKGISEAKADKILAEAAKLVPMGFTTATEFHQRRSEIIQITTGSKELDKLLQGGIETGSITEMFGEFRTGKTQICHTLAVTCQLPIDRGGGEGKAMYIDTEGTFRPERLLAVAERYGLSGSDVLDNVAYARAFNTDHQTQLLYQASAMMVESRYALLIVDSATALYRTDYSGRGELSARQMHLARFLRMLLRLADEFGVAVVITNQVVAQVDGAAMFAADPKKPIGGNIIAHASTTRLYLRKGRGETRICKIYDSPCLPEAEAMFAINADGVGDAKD

No constants are given. Whether binding was seen depends on the method and setting. Binding seen in cells or lysates may run through a third protein. Some entries that bind do so weakly or less than the wild type.

In the case of Rad51 (from UniProt Q06609 1-339), the binding result was “binds”.

Source of the values: PMC3970133.
